{
  "source": "paper PMC3299598",
  "key": {"[1]": {"tested_on": "IS2 OrfAB-GFP transposase fusion", "assay": "EMSA", "conditions": "80 nM protein, 2 nM DNA, 20 mM Tris-Cl pH 8.0, 1 mM EDTA, 1.0 ug/mL calf thymus DNA, 30 min at room temperature (20 C), 5% native PAGE at 4 C, recombinant protein, protein details: C-terminal GFP, 6xHis (Ni-NTA purified)"}, "[2]": {"tested_on": "IS2 OrfAB-GFP transposase fusion", "assay": "hydroxyl radical footprinting", "conditions": "225.7 nM protein, 20 mM Tris-Cl pH 8.0, 1 mM EDTA, 1.0 ug/mL calf thymus DNA, 30 min at room temperature (20 C), 5% native PAGE at 4 C, recombinant protein, protein details: C-terminal GFP, 6xHis (Ni-NTA purified)"}, "[3]": {"conditions": "label: 32P, top 5' end or bottom 3' end (ddA)"}},
  "note": "For at least one entry, the source does not settle the construct or the ends of the probe.",
  "data": [
    {"sequence": "ACGCGGAGTGAATTCGAGCTCTAGACTGGCCCCCTGAATCTCCAGACAACCAATATCACTTAAATAAGTGATAGTCTTA / TAAGACTATCACTTATTTAAGTGATATTGGTTGTCTGAAGATTCAGGGGGCCAGTCTAGAGCTCGAATTCCACTCCGCGT [L79 (IRL 79-mer)]", "values": [
      {"measurement": "binding result", "setting": "[1]; [3]", "result": "binds"},
      {"measurement": "binding result", "setting": "[2]; cleavage domain only at 2, 5, 7, 39-48 strongly protected, label: 32P, top 5' end or bottom 3' end (ddA)", "result": "binds"}
    ]},
    {"sequence": "GCTGACTTGACGGGACGGGGATCCTTAAGTGATAACAGATGTCTGGAAATATAGGGGCAAATCCAATCGACCTGCAGGCATATAAGC (double strand) [R87 (IRR 87-mer)]", "values": [
      {"measurement": "binding result", "setting": "[1]; [3]", "result": "binds"},
      {"measurement": "binding result", "setting": "[2]; cleavage domain and B element strongly protected, label: 32P, top 5' end or bottom 3' end (ddA)", "result": "binds"}
    ]},
    {"sequence": "GGTACCCGGCCATGGTTAAGTGATAACAGATGTCTGGGAAATATAGGGGCAAATCCACTAGACTGGCCCCCTGAATCTCCAGACAACCAATATCACTTAAATAAGTTATAGTCTT / AAGACTATAACTTATTTAAGTGATATTGGTTGTCTGGAGATTCAGGGGGCCAGTCTAGTGGATTTGCCCCTATATTTCCAGACATCTGTTATCACTTAAGGATCCCCGGGTACC [MJcj (covalently joined minicircle junction, 114-mer)]", "values": [
      {"measurement": "binding result", "setting": "[1]; very efficient binding, label: 32P-ddA at bottom 3' end for footprinting", "result": "binds"},
      {"measurement": "binding result", "setting": "[2]; both cleavage domains protected, label: 32P-ddA at bottom 3' end for footprinting", "result": "binds"}
    ]},
    {"sequence": "GGTACCCGGGGATCCTTAAGTGATAACAGATGTCTGGAAATATAGGGGCAAATCCA / CTAGACTGGCCCCCTGAATCTCCAGACAACCAATATCACTTAAATAAGTTATAGTCTT / AAGACTATAACTTATTTAAGTGATATTGGTTGTCTGGAGATTCAGGGGGCCAGTCTAGTGGATTTGCCCCTATATTTCCAGACATCTGTTATCACTTAAGGATCCCCGGGTACC [MJpc (precleaved minicircle junction, 114-mer)]", "values": [
      {"measurement": "binding result", "setting": "[1]; very efficient binding, nick at IRR CA-3'OH", "result": "binds"},
      {"measurement": "binding result", "setting": "[2]; IRL cleavage domain disengaged, nick at IRR CA-3'OH", "result": "binds"}
    ]}
  ]
}
